No constants are given. Whether binding was seen depends on the method and setting. For some of these results: Binding seen in cells or lysates may run through a third protein. Some entries that bind do so weakly or less than the wild type. For some of these results: Where a sequence is shown, tags or fusion partners need not be part of it.
Assays:
[1] = target: T1, GST-Par4DD fusion protein (pGEX-2T-Par4DD, Par4 amino acids 250-342) (human) (UniProt Q96IZ0); assay: GST pull-down (legend of FIG. 10C)
T1 sequence: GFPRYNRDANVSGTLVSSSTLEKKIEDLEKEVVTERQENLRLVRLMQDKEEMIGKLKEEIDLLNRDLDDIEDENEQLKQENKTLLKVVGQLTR

Protein sequences, listed by entry. Tags and fused reporters are not part of them. Lines headed by an entry give the natural chain unless they say otherwise; changes in a name come on top.
UniProt P02778: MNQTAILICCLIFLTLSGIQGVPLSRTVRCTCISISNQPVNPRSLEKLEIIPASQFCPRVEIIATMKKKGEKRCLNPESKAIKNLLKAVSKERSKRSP
UniProt Q99731: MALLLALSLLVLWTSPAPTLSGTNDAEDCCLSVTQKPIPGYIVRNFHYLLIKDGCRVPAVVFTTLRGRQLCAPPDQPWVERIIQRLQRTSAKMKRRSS
UniProt Q9H0W7: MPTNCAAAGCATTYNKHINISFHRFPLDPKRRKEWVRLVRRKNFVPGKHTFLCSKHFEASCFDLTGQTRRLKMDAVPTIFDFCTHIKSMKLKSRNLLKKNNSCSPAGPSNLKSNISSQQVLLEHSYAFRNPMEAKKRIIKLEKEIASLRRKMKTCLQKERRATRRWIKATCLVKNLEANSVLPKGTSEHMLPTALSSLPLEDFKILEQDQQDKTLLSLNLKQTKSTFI

[2] = target: T1, GST-Par4DD fusion protein (pGEX-2T-Par4DD, Par4 amino acids 250-342) (human); assay: in vitro GST pull-down with GST-Par4DD (FIG. 10C)
[3] = target: T1, GST-Par4DD fusion protein (pGEX-2T-Par4DD, Par4 amino acids 250-342) (human); assay: GST pull-down (legend of FIG. 7A)
[4] = target: T2, GST-THAP1 fusion protein (pGEX-2T-THAP1) (human); assay: GST pull-down, immobilized GST-THAP1, in vitro translated 35S-labelled mutant
T2 sequence: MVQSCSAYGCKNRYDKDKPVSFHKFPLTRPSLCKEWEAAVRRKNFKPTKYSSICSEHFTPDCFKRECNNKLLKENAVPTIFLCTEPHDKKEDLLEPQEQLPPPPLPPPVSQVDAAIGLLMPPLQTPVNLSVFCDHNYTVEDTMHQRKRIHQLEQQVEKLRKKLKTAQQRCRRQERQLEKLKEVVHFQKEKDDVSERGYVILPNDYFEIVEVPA

[5] = target: T1, GST-Par4DD fusion protein (pGEX-2T-Par4DD, Par4 amino acids 250-342) (human); assay: GST pull-down, immobilized GST-Par4DD, in vitro translated 35S-labelled mutant
[6] = target: T1, GST-Par4DD fusion protein (pGEX-2T-Par4DD, Par4 amino acids 250-342) (human); assay: GST pull-down, immobilized GST-Par4DD, in vitro translated 35S-labelled THAP1ΔTHAP
[7] = target: T1, GST-Par4DD fusion protein (pGEX-2T-Par4DD, Par4 amino acids 250-342) (human); assay: GST pull-down (legend of FIG. 3B)
[8] = target: human chemokine IP10/CXCL10, mature form (amino acids 22-98) (human) (UniProt P02778); assay: yeast two-hybrid, pGADT7-THAP1 with pGBKT7-CXCL10
[9] = target: T3, human chemokine I-TAC/CXCL11, mature form (amino acids 22-94) (human) (UniProt O14625); assay: yeast two-hybrid, pGADT7-THAP1 with pGBKT7-chemokine
T3 sequence: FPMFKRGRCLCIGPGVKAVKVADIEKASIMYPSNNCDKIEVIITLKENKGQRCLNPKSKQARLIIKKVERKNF

[10] = target: T4, partial PAR4 from the HEVEC two-hybrid library clones (positions 193-342) (human) (UniProt Q96IZ0); assay: yeast two-hybrid screen of the pGAD424-HEVEC cDNA library with pGBKT7-THAP1 bait (His/Ade selection)
T4 sequence: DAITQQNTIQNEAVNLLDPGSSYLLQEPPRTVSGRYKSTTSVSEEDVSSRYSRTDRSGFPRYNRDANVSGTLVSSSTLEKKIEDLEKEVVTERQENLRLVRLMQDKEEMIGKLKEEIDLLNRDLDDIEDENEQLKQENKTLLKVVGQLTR

[11] = target: T2, GST-THAP1 fusion protein (pGEX-2T-THAP1) (human); assay: GST pull-down, immobilized GST-THAP1, in vitro translated protein
[12] = target: human chemokine ELC/CCL19, mature form (amino acids 22-98) (human) (UniProt Q99731); assay: GST pull-down, SDS-polyacrylamide gel (legend of FIG. 20C)
[13] = target: human chemokine IP10/CXCL10, mature form (amino acids 22-98) (human) (UniProt P02778); assay: as above
[14] = target: T5, human chemokine MIG/CXCL9, mature form (amino acids 23-125) (human) (UniProt Q07325); assay: as above
T5 sequence: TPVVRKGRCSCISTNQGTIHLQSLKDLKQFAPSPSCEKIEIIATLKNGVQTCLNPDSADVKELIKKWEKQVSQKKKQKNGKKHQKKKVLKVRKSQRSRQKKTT

[15] = target: human chemokine SLC/CCL21, mature form (amino acids 24-134) (human) (UniProt O00585); assay: GST pull-down, immobilized GST-THAP1, in vitro translated 35S-labelled SLC/CCL21
[16] = target: human chemokine ELC/CCL19, mature form (amino acids 22-98) (human) (UniProt Q99731); assay: GST pull-down, immobilized GST-THAP1, in vitro translated 35S-labelled chemokine
[17] = target: T3, human chemokine I-TAC/CXCL11, mature form (amino acids 22-94) (human); assay: as above
[18] = target: human chemokine IP10/CXCL10, mature form (amino acids 22-98) (human) (UniProt P02778); assay: as above
[19] = target: T5, human chemokine MIG/CXCL9, mature form (amino acids 23-125) (human); assay: as above
[20] = target: human chemokine SLC/CCL21, mature form (amino acids 24-134) (human) (UniProt O00585); assay: as above
[21] = target: T2, GST-THAP1 fusion protein (pGEX-2T-THAP1) (human); assay: GST pull-down, immobilized GST-THAP1, in vitro translated SLC/CCL21ΔCOOH
[22] = target: T6, human THAP1 (THanatos (death)-Associated Protein-1), full length (human) (UniProt Q9NVV9); assay: GST pull-down, immobilized GST-Par4DD, in vitro translated 35S-labelled THAP1, SDS-PAGE and fluorography
T6 sequence: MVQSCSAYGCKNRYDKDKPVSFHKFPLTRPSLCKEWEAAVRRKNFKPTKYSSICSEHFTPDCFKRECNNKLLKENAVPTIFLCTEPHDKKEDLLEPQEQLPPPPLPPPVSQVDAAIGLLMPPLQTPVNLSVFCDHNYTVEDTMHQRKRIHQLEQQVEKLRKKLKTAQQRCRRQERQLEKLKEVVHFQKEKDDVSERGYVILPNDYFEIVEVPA

Molecule: human THAP2 (from UniProt Q9H0W7 1-228)
- binding [1]: binds
- binding [2]: binds

B1: THAP1-C1 deletion mutant (amino acids 90-213) (other)
chain: KEDLLEPQEQLPPPPLPPPVSQVDAAIGLLMPPLQTPVNLSVFCDHNYTVEDTMHQRKRIHQLEQQVEKLRKKLKTAQQRCRRQERQLEKLKEVVHFQKEKDDVSERGYVILPNDYFEIVEVPA
notes: Tested as a Gal4-BD or Gal4-AD fusion, as in vitro translated 35S-labelled protein and as an EGFP fusion; also called THAP1ΔTHAP; THAP1?THAP
- binding [3]: binds
- binding [4]: binds
- binding [5]: binds
- binding [6]: binds

B2: THAP1-C2 deletion mutant (amino acids 120-213) (other)
chain: MPPLQTPVNLSVFCDHNYTVEDTMHQRKRIHQLEQQVEKLRKKLKTAQQRCRRQERQLEKLKEVVHFQKEKDDVSERGYVILPNDYFEIVEVPA
notes: Tested as a Gal4-BD or Gal4-AD fusion, as in vitro translated 35S-labelled protein and as an EGFP fusion
- binding [4]: binds
- binding [5]: binds

B3: THAP1-C3 deletion mutant (amino acids 143-213) (other)
chain: MHQRKRIHQLEQQVEKLRKKLKTAQQRCRRQERQLEKLKEVVHFQKEKDDVSERGYVILPNDYFEIVEVPA
notes: as for B2
- binding [4]: binds
- binding [5]: binds

B4: THAP1-N3 deletion mutant (amino acids 1-192) (other)
chain: MVQSCSAYGCKNRYDKDKPVSFHKFPLTRPSLCKEWEAAVRRKNFKPTKYSSICSEHFTPDCFKRECNNKLLKENAVPTIFLCTEPHDKKEDLLEPQEQLPPPPLPPPVSQVDAAIGLLMPPLQTPVNLSVFCDHNYTVEDTMHQRKRIHQLEQQVEKLRKKLKTAQQRCRRQERQLEKLKEVVHFQKEKDD
notes: as for B2
- binding [4]: binds
- binding [5]: binds

B5: human THAP1 (THanatos (death)-Associated Protein-1), full length (other)
chain: MVQSCSAYGCKNRYDKDKPVSFHKFPLTRPSLCKEWEAAVRRKNFKPTKYSSICSEHFTPDCFKRECNNKLLKENAVPTIFLCTEPHDKKEDLLEPQEQLPPPPLPPPVSQVDAAIGLLMPPLQTPVNLSVFCDHNYTVEDTMHQRKRIHQLEQQVEKLRKKLKTAQQRCRRQERQLEKLKEVVHFQKEKDDVSERGYVILPNDYFEIVEVPA
notes: It was tested as a Gal4-BD (pGBKT7) or Gal4-AD (pGADT7); also called hTHAP1; FLJ10477
- binding [7]: binds
- binding [3]: binds
- binding [8]: binds
- binding [9]: binds
- binding [10]: binds

B6: human chemokine SLC/CCL21, mature form (amino acids 24-134) (ligand)
chain: SDGGAQDCCLKYSQRKIPAKVVRSYRKQEPSLGCSIPAILFLPRKRSQAELCADPKELWVQQLMQHLDKTPSPQKPAQGCRKDRGASKTGKKGKGSKGCKRTERSQTPKGP
notes: also called SLC/6Ckine; SLC/CCL21 wild type
- binding [11]: binds

B7: human THAP3 (protein)
chain: MPKSCAARQCCNRYSSRRKQLTFHRFPFSRPELLKEWVLNIGRGNFKPKQHTVICSEHFRPECFSAFGNRKNLKHNAVPTVFAFQDPTQQVRENTDPASERGNASSSQKEKVLPEAGAGEDSPGRNMDTALEELQLPPNAEGHVKQVSPRRPQATEAVGRPTGPAGLRRTPNKQPSDHSYALLDLDSLKKKLFLTLKENEKLRKRLQAQRLVMRRMSSRLRACKGHQGLQARLGPEQQS
- binding [1]: binds
- binding [2]: binds

B8: GST-THAP1 fusion protein (pGEX-2T-THAP1) (protein, not shown: a dimerising Fc or GST)
chain: MVQSCSAYGCKNRYDKDKPVSFHKFPLTRPSLCKEWEAAVRRKNFKPTKYSSICSEHFTPDCFKRECNNKLLKENAVPTIFLCTEPHDKKEDLLEPQEQLPPPPLPPPVSQVDAAIGLLMPPLQTPVNLSVFCDHNYTVEDTMHQRKRIHQLEQQVEKLRKKLKTAQQRCRRQERQLEKLKEVVHFQKEKDDVSERGYVILPNDYFEIVEVPA
- binding [12]: binds
- binding [13]: binds
- binding [14]: binds
- binding [15]: binds
- binding [16]: binds
- binding [17]: binds
- binding [18]: binds
- binding [19]: binds
- binding [20]: binds

B9: SLC/CCL21ΔCOOH deletion mutant lacking the basic carboxy-terminal extension (ligand)
chain: SDGGAQDCCLKYSQRKIPAKVVRSYRKQEPSLGCSIPAILFLPRKRSQAELCADPKELWVQQLMQHLDKTPSPQKPAQG
notes: Tested as a Gal4-AD or Gal4-BD fusion and as in vitro translated protein; also called SLC/CCL21?COOH
- binding [21]: binds

B10: GST-Par4DD fusion protein (pGEX-2T-Par4DD, Par4 amino acids 250-342) (other)
chain: GFPRYNRDANVSGTLVSSSTLEKKIEDLEKEVVTERQENLRLVRLMQDKEEMIGKLKEEIDLLNRDLDDIEDENEQLKQENKTLLKVVGQLTR
notes: Expressed in E. coli DH5alpha and immobilized on glutathione sepharose; not shown: Glutathione S-transferase (GST) encoded by the pGEX-2T prokaryotic expression vector (Amersham Pharmacia Biotech); N-ter
- binding [22]: binds
